Literature values, collected in patent US20020037885A1, “Therapeutic compounds” (priority 1999, published 2002).
Some results were stated once for a whole list of compounds, not compound by compound. At least one structure is not confirmed: it was looked up by name or label, or the drawing left a doubt.

Tested on: Ih channel
Conditions: Pape 1994; use-dependent blockade; cited from earlier work

Structure (SMILES) | concentrations reducing the conductance underlying Ih [µM]
COc1ccc(CCN2CCC[C@@H](CN3CCc4cc(OC)c(OC)cc4CC3=O)C2)cc1OC.Cl [DK-AH268] | 10 to 1000
COc1ccc(CCN(C)CCCN2CCc3cc(OC)c(OC)cc3CC2=O)cc1OC [zatebradine] | 10 to 1000
